For 55 compounds, AC50 results are on record in PubChem BioAssay AID1487 (National Center for Advancing Translational Sciences (NCATS), 2009).

The list shows a part of the results. These are further read-outs of the screen, such as a control signal, another cell line or another target. No call is given for them. The list favours compounds with an active or inconclusive main result. Words in brackets tell the shape of the fitted curve; partial curves, single points and poor fits give uncertain potencies.

The test can be described thus: qHTS Assay for Modulators of Lamin A Splicing. The conditions noted are these: HeLa LMNA splicing GFP/RFP minigene ratio, 48 h. The procedure, abridged:
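S3 HeLa stable clones carrying a lamin A-EGFP splicing minigene plus DsRed2 were seeded at 600 cells/well in Opti-MEM with 2% FBS, pin-dosed and incubated 48 h at 37°C. Acumen cytometry (488 nm) gave the GFP/RFP total-intensity ratio.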

The mark [1] stands for this setting: measured here: GFP splicing reporter channel.
Where [2] appears, read: measured here: RFP viability control channel.

Usually AC50 stands for the concentration giving half of the maximal activity seen. For the compound `CC1=CC(C)(C)Nc2ccc(OC(=O)CCN3C(=O)c4ccccc4C3=O)cc21`, the AC50 is, setting by setting: under setting [1], 22.4 µM [falling, partial curve]; under setting [2], 20 µM [falling, single point]. Turning to `Cc1cn2c(=O)cc(COC(=O)c3cccc(NC(=O)COc4ccccc4Cl)c3)nc2s1`, the AC50 under setting [1] was 0.0141 µM [rising, full curve, poor fit]. On to `COc1ccc(NC(=O)CSc2nnc(C3CC3)n2C)cc1`, for which the AC50 under setting [1] was 5.01 µM [rising, partial curve, poor fit]. For the compound `CCOC(=O)c1ccccc1NC(=O)N1CCc2c(sc(C)c2CC)C1c1ccccc1` (stereo not given), the AC50 under setting [2] was 11.2 µM [rising, single point]. For the compound `Cc1ccc(Cl)cc1N1CCN(C(=O)c2cnc(N3CCOCC3)c3ccccc23)CC1`, the AC50 under setting [1] is 11.2 µM [falling, partial curve] and the concentration at half-maximal activity (AC50) under setting [2] was 12.6 µM [falling, partial curve, poor fit].

Take `CC(C)Cn1c(O)c(/C=C2\C=NN=C2c2ccccc2)sc1=S`: the AC50 under setting [2] was 10 µM [rising, partial curve].

`C=CCn1c(COc2ccc(F)cc2)nnc1SCC(=O)N1CC(=O)Nc2ccccc21`: the AC50 under setting [2] is 14.1 µM [rising, single point]. As to `C=CCNCCCCOc1ccccc1-c1ccccc1`, under setting [1], the AC50 is 0.141 µM [rising, full curve, poor fit]. As to `CC(=O)c1ccc(C(C)(C)c2ccc(C(C)=O)s2)s1`, the AC50 under setting [2] was 20 µM [rising, single point].

`COc1cc(/C=N/NC(=O)c2csc3c2CCCC3)cc(OC)c1O`: the AC50 under setting [2] is 35.5 µM [rising, single point]. Take `CCOC(=O)C1CCN(c2ncnc3c2c(-c2ccccc2)cn3-c2cccc(C)c2)CC1`: the AC50 under setting [1] is 0.355 µM [falling, full curve, poor fit]. For `CCc1ccc(OCC(=O)N2c3ccccc3CCc3ccccc32)cc1`, the AC50 is, setting by setting: under setting [1], 10 µM [falling, partial curve, poor fit]; under setting [2], 3.55 µM [falling, partial curve, poor fit].

Take `CCN1C(=O)/C(=C2/Sc3ccccc3N2CCCS(=O)(=O)O)SC1=S`: the AC50 is 35.5 µM [rising, single point] under setting [1] and 35.5 µM [rising, single point] under setting [2]. Take `COc1ccc(C2=CC(c3ccc(F)cc3)n3ncc(C(=O)Nc4ccc(C)cc4)c3N2)cc1` (stereo not given): the AC50 under setting [2] was 12.6 µM [rising, partial curve]. As for `CC(=O)Nc1ccc2nc(C3CC3)n(Cc3ccc(Cl)cc3)c(=O)c2c1`, the AC50 under setting [2] is 10 µM [falling, partial curve, poor fit]. Turning to `O=C(Cn1ccn(-c2ccc(F)c(F)c2)c(=O)c1=O)Nc1ccccc1F`, the AC50 under setting [1] is 15.8 µM [rising, partial curve, poor fit] and the AC50 under setting [2] is 17.8 µM [rising, partial curve, poor fit]. Consider `O=C(CCCOc1ccccc1)NC(=S)Nc1ccccc1`, for which the AC50 is 1.26 µM [falling, partial curve, poor fit] under setting [1] and 2.51 µM [falling, partial curve, poor fit] under setting [2].

Consider `Cc1cc(C(=O)CN2C(=O)c3ccccc3C2=O)c(C)n1Cc1cccs1`, for which, under setting [2], the half-maximal activity concentration (AC50) is 35.5 µM [rising, single point]. Same read-out and setting: to `COCCn1c(C)cc(C(=O)CSc2nnc(-c3cccnc3)n2-c2ccccc2F)c1C` belongs 0.0141 µM [falling, full curve, poor fit]; to `CCOC(=O)c1scc(-c2ccccc2)c1S(=O)(=O)Nc1ccccc1F`, 20 µM [rising, partial curve, poor fit]; to `CC1CC(C)CN(C(=O)c2cc3cc(Br)cc(Br)c3o2)C1` (stereo not given), 25.1 µM [rising, single point].

In the case of `CC1(C)CCC(NC(=O)[C@@H](N)CCC(=O)O)CC1`, under setting [2], the AC50 was 0.00112 µM [falling, full curve, poor fit]. For `O=C1NC2(CCCCC2)C(=O)N1CCS(=O)(=O)Oc1ccc(Br)cc1`, the AC50 is, setting by setting: under setting [1], 35.5 µM [falling, single point]; under setting [2], 17.8 µM [falling, partial curve].

On to `Cc1nc(-c2ccc(Cl)cc2)sc1CCNC(=O)C(=O)Nc1ccc(F)cc1F`, for which, under setting [2], the AC50 was 5.62 µM [rising, single point].

`Cc1cccc[n+]1CC(=O)/C=C1\N(C)c2ccccc2C1(C)C`: the AC50 by setting is: under setting [1], 11.2 µM [rising, partial curve, poor fit]; under setting [2], 10 µM [rising, partial curve]. As to `COCCn1c(=O)c(-c2ccc(F)cc2)nc2cnc(Nc3cccc(OC)c3)nc21`, the AC50 under setting [2] is 8.91 µM [falling, partial curve]. For the compound `COC(=O)c1cccc(NC(=O)/C=C/c2ccc3c(c2)OCO3)c1`, the AC50 under setting [2] was 7.08 µM [rising, partial curve]. Take `COc1cc(/C=C2/C(=O)ON=C2C)ccc1OCc1cccc(F)c1`: the AC50 under setting [2] is 3.55 µM [falling, partial curve].

On to `COc1cccc(NC(=O)NCc2ccc3c(c2)CCN3C(=O)c2ccccc2)c1`, for which the AC50 under setting [1] was 0.398 µM [falling, full curve, poor fit]. On to `Nc1ncnc2c1ncn2C1CC(O)C(CO)O1` (stereo not given), for which the AC50 under setting [2] was 0.501 µM [falling, single point]. Regarding `COc1ccc(N2CCN(Cc3nc(N)nc(Nc4ccccc4OC)n3)CC2)cc1`, the AC50 under setting [2] is 35.5 µM [rising, single point]. In the case of `O=C(CSc1n[nH]c(=O)n1C1CC1)Nc1cc(Cl)ccc1Oc1ccccc1`, the AC50 is, setting by setting: under setting [1], 6.31 µM [rising, partial curve, poor fit]; under setting [2], 12.6 µM [rising, partial curve]. In the case of `Cc1ccc(NC(=O)CC2C(=O)N(Cc3ccccc3)C(=S)N2NC(=O)c2ccccc2)c(C)c1` (stereo not given), the AC50 under setting [2] was 35.5 µM [rising, single point]. As for `C=CCNCCCCOc1ccc(Br)cc1C`, the AC50 was 17.8 µM [rising, partial curve] under setting [1] and 0.02 µM [rising, full curve, poor fit] under setting [2].

In the case of `COc1ccc(/C=N/NC(=S)SC)cc1OC`, the half-maximal activity concentration (AC50) under setting [2] was 3.98 µM [rising, full curve]. Consider `O=C(c1cc(Br)c(Br)s1)N1CCN(C/C=C/c2ccccc2)CC1`, for which the AC50 runs as follows: under setting [1], 35.5 µM [rising, single point]; under setting [2], 31.6 µM [rising, single point]. Take `COc1ccccc1CNS(=O)(=O)c1cc(C(=O)Nc2cccc(C(F)(F)F)c2)ccc1F`: the AC50 reads like this: under setting [1], 35.5 µM [falling, single point]; under setting [2], 12.6 µM [falling, single point]. In the case of `CCOc1ccc(OCC)c(NC(=O)CN2CCN(c3cccc(C)c3)C(C)C2)c1` (stereo not given), the half-maximal activity concentration (AC50) is 15.8 µM [rising, single point] under setting [1] and 31.6 µM [rising, single point] under setting [2]. Regarding `C=CCN1C(=O)N/C(=C/c2ccc(N3CCOCC3)o2)C1=O`, the AC50 under setting [1] was 15.8 µM [rising, single point] and the AC50 under setting [2] is 35.5 µM [rising, single point]. Take `Cc1cc(C(=O)CSc2nc(N)cc(=O)[nH]2)c(C)n1CCc1ccc(Cl)cc1`: the AC50 under setting [2] was 35.5 µM [rising, single point].

Turning to `Cc1ccc([N+](=O)[O-])cc1NC(=O)CN1CCC(C)CC1`, the concentration at half-maximal activity (AC50) under setting [1] is 35.5 µM [rising, single point]. Consider `COc1ccc(OC)c(C(=O)CSc2nnc(Cc3cccs3)n2CCc2ccccc2)c1`, for which the AC50 by setting is: under setting [1], 22.4 µM [falling, single point]; under setting [2], 25.1 µM [falling, single point]. As to `CC1CCCC(NC(=O)C2CCCN2S(=O)(=O)c2cccc3nsnc23)C1C` (stereo not given), under setting [2], the AC50 was 35.5 µM [rising, single point].

`COc1ccc(/C=N/NC(=O)c2cc(-c3cccn3C)n[nH]2)cc1OC`: the AC50 under setting [2] is 11.2 µM [rising, partial curve, poor fit]. As to `COc1ccc(N2CCN(C(=O)c3cccc(N4C(=O)C5CC=CC(C)C5C4=O)c3)CC2)cc1` (stereo not given), the AC50 under setting [1] was 12.6 µM [falling, partial curve, poor fit] and the AC50 under setting [2] was 0.562 µM [falling, full curve, poor fit]. With `C1OCOCO1`, the AC50 under setting [1] is 3.16 µM [rising, single point]. Turning to `Cc1ccc(OCCn2c(Br)nc3c2c(=O)n(C)c(=O)n3C)cc1`, the AC50 reads like this: under setting [1], 3.55 µM [rising, full curve, poor fit]; under setting [2], 2.82 µM [rising, full curve].

As for `CCN(C(=S)Nc1cccnc1)c1cccc2ccccc12`, the AC50 under setting [2] was 0.0316 µM [falling, full curve, poor fit]. In the case of `O=C(Nc1ccc(F)c(F)c1)c1ccc2c(c1)OCO2`, the half-maximal activity concentration (AC50) under setting [2] was 35.5 µM [rising, single point].

With `CCO[C@H]1O[C@@H]([C@H](COCc2ccccc2)OCc2ccccc2)[C@@H](OCc2ccccc2)[C@H]1O`, the half-maximal activity concentration (AC50) was 0.00282 µM [falling, full curve, poor fit] under setting [1] and 0.00316 µM [falling, full curve, poor fit] under setting [2].

For `O=C(Nc1ccc2nc(SCC(=O)N3CCCc4ccccc43)sc2c1)c1cccc(F)c1`, the AC50 under setting [1] is 35.5 µM [falling, partial curve]. On to `Nc1ccccc1C(=O)/C=C/c1ccc2c(c1)OCO2`, for which the concentration at half-maximal activity (AC50) under setting [2] was 10 µM [rising, partial curve]. For the compound `CC(C)[C@H](NS(=O)(=O)c1ccccc1)C(=O)OCC(=O)N1N=C(c2ccc(Cl)cc2)CC1c1ccco1` (stereo not given in full), the half-maximal activity concentration (AC50) under setting [2] was 15.8 µM [rising, partial curve].

For the compound `CCOc1ccc2c(c1)-c1c(ssc1=S)C(C)(C)N2C(=O)CSC1=NCCS1`, the AC50 by setting is: under setting [1], 10 µM [rising, partial curve, poor fit]; under setting [2], 14.1 µM [rising, partial curve, poor fit]. As for `N#Cc1c(SCc2cccc(Cl)c2)sc(C(=O)c2ccccc2)c1N`, the AC50 by setting is: under setting [1], 12.6 µM [rising, partial curve]; under setting [2], 14.1 µM [rising, single point].
